Experimental data reported in patent US20230080252A1, “ANTICANCER ADJUVANT AND PHARMACEUTICAL COMPOSITION FOR TREATING ANTICANCER-AGENT-RESISTANT CANCER, AND KIT COMPRISING SAME” (DONG-A UNIVERSITY RESEARCH FOUNDATION FOR INDUSTRY-ACADEMY …, priority 2020, published 2023).
Construct, isoform or probe ends are uncertain for at least one entry. For part of these data: No signal at the amounts used counts as a negative. Protein sequences can lack the tags named with them. For part of these data: Where cells or extracts were used, other partners may take part.

Experiments:
[1] = target: T1, Tristetraprolin (TTP, ZFP36) (UniProt P26651); assay: activity in cells; conditions: protein in cells
T1 sequence (looked up, limits assumed): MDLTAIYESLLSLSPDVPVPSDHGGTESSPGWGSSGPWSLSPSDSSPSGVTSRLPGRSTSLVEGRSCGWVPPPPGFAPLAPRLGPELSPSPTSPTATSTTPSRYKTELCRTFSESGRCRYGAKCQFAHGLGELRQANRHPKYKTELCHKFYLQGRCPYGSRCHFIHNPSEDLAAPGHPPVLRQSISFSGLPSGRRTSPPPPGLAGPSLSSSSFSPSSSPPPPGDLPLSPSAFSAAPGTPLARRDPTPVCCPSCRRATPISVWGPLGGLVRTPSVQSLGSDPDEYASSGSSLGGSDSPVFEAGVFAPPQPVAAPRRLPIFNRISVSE

[2] = target: T1, Tristetraprolin (TTP, ZFP36); assay: binding assay; conditions: RNA immunoprecipitation + RT-PCR from A549 lysates, with or without UV; protein in cells

Sequence: CAAUUCUGCAGUAUUUACAA [Claspin mRNA 3'UTR ARE1 (wild type)]
- functional effect ([1]; luciferase reporter (psiCHECK2) decreased about 5-fold on TTP depletion, increased by TTP overexpression): 5 fold
- binding result [2]: binds

Sequence: CAAUUCUGCAGUAUCUACAA [Claspin ARE1Mut]
- functional effect ([1]; luciferase reporter not induced by TTP overexpression, variant of Claspin mRNA 3'UTR ARE1 (wild type)): not active
